Here are results for ten molecules from patent publication EP4713368A1.

Protein sequences, listed by entry. Tags and fused reporters are not part of them. Lines headed by an entry give the natural chain unless they say otherwise; changes in a name come on top.
UniProt P10747: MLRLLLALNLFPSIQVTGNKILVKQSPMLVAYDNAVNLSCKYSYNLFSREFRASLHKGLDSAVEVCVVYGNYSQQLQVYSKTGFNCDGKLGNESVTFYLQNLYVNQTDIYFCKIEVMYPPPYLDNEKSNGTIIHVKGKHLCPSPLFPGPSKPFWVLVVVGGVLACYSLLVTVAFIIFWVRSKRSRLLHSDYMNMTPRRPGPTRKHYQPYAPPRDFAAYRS

Results are given in words; binding and its absence hold for the method and conditions named. Some entries that bind do so weakly or less than the wild type.

The target in this test is human CD28 (human) (UniProt P10747). As to the kind of experiment: affinity maturation of CD28-binding antibodies (Example 10: Discovery of Additional Antibodies that Bind to CD28).

B1: Ab No. 70a (antibody, V domains shown)
VH: EVQLLESGGGLVQPGGSLRLSCAASGFTFSDHLMSWVRQAPGKERELVSAISGSGGSTYYADSVKGRFTISRDNSKNTLYLQMNSLRAEDTAVYYCAAHASGSYYLDASRDYDADYWGQGTQVTVSS
Consider B1, for which the binding result is given as “binds”.

B2: Ab No. 70b (antibody, V domains shown)
VH: EVQLLESGGGLVQPGGSLRLSCAASGFTFSDFLMSWVRQAPGKERELVSAISGSGGSTYYADSVKGRFTISRDNSKNTLYLQMNSLRAEDTAVYYCAAHASGSYYLDASRDYDADYWGQGTQVTVSS
Regarding B2, the binding result was “binds”.

B3: Ab No. 70e (antibody, V domains shown)
VH: EVQLLESGGGLVQPGGSLRLSCAASGFDFANYAMSWVRQAPGKERELVSAISGSGGSTYYADSVKGRFTISRDNSKNTLYLQMNSLRAEDTAVYYCAAHASGSYYLDASRDYDADYWGQGTQVTVSS
On to B3, for which the binding result is “binds”.

B4: Ab No. 70d (antibody, V domains shown)
VH: EVQLLESGGGLVQPGGSLRLSCAASGFTFSDYLMSWVRQAPGKERELVSAISGSGGSTYYADSVKGRFTISRDNSKNTLYLQMNSLRAEDTAVYYCAAHASGSYYLDASRDYDADYWGQGTQVTVSS
For the molecule B4, the binding result was “binds”.

B5: Ab No. 70f (antibody, V domains shown)
VH: EVQLLESGGGLVQPGGSLRLSCAASGFTFSSYAMSWVRQAPGKERELVSAISGSGGSTYYADSVKGRFTISRDNSKNTLYLQMNSLRAEDTAVYYCAAHASGSYYLDASRDYDADYWGQGTQVTVSS
Consider B5, for which the binding entry was “binds”.

B6: Ab No. 70c (antibody, V domains shown)
VH: EVQLLESGGGLVQPGGSLRLSCAASGFTFSDYAMSWVRQAPGKERELVSIISASGGSTYYADSVKGRFTISRDNSKNTLYLQMNSLRAEDTAVYYCAAHASGSYYLDASRDYDADYWGQGTQVTVSS
B6: the binding result was “binds”.

B7: Ab No. 68c (antibody, V domains shown)
VH: EVQLVESGGGLVQPGGSLRLSCAASGFTFVPYSMNWVRQAPGKGLEWVSYISPSADTIYYADSVKGRFTISRDNAKNSLYLQMNSLRAEDTAVYYCAREVHRGWGAFDIWGQGTMVTVSS
VL: DIVMTQSPDSLAVSLGERATINCKSSQSLLNARTGKNYLAWYQQKPGQPPKLLIYWASTRESGVPDRFSGSGSGTDFTLTISSLQAEDVAVYYCKQSYSLRTFGGGTKVEIK
Regarding B7, the binding entry is reported as “binds”.

B8: Ab No. 68e (antibody, V domains shown)
VH: EVQLVESGGGLVQPGGSLRLSCAASGFTFSDVSMNWVRQAPGKGLEWVSYISSPADTIYYADSVKGRFTISRDNAKNSLYLQMNSLRAEDTAVYYCAREVHRGWGAFDIWGQGTMVTVSS
VL: DIVMTQSPDSLAVSLGERATINCKSSQSLLNARTGKNYLAWYQQKPGQPPKLLIYWASTRESGVPDRFSGSGSGTDFTLTISSLQAEDVAVYYCKQSYSLRTFGGGTKVEIK
With B8, the binding result is “binds”.

B9: Ab No. 68f (antibody, V domains shown)
VH: EVQLVESGGGLVQPGGSLRLSCAASGFTFSDYSMTWVRQAPGKGLEWVSYISSSASTIYYADSVKGRFTISRDNAKNSLYLQMNSLRAEDTAVYYCAREVHRGWGAFDIWGQGTMVTVSS
VL: DIVMTQSPDSLAVSLGERATINCKSSQSLLNARTGKNYLAWYQQKPGQPPKLLIYWASTRESGVPDRFSGSGSGTDFTLTISSLQAEDVAVYYCKQSYSLRTFGGGTKVEIK
With B9, the binding result is listed as “binds”.

B10: Ab No. 68d (antibody, V domains shown)
VH: EVQLVESGGGLVQPGGSLRLSCAASGFTFHSYSMNWVRQAPGKGLEWVSYIDASASTISYADSVKGRFTISRDNAKNSLYLQMNSLRAEDTAVYYCAREVHRGWGAFDIWGQGTMVTVSS
VL: DIVMTQSPDSLAVSLGERATINCKSSQSLLNARTGKNYLAWYQQKPGQPPKLLIYWASTRESGVPDRFSGSGSGTDFTLTISSLQAEDVAVYYCKQSYSLRTFGGGTKVEIK
Consider B10, for which the binding entry was “binds”.
